Source: paper PMC11042535
Results are given in words; binding and its absence hold for the method and conditions named. For some of these results: In cells and extracts the contact can be indirect. Some results given as binding are weak or reduced against the parent protein; the word gives no strength.

Chains of the proteins cited; added tags and fusions are not shown.
UniProt P52630: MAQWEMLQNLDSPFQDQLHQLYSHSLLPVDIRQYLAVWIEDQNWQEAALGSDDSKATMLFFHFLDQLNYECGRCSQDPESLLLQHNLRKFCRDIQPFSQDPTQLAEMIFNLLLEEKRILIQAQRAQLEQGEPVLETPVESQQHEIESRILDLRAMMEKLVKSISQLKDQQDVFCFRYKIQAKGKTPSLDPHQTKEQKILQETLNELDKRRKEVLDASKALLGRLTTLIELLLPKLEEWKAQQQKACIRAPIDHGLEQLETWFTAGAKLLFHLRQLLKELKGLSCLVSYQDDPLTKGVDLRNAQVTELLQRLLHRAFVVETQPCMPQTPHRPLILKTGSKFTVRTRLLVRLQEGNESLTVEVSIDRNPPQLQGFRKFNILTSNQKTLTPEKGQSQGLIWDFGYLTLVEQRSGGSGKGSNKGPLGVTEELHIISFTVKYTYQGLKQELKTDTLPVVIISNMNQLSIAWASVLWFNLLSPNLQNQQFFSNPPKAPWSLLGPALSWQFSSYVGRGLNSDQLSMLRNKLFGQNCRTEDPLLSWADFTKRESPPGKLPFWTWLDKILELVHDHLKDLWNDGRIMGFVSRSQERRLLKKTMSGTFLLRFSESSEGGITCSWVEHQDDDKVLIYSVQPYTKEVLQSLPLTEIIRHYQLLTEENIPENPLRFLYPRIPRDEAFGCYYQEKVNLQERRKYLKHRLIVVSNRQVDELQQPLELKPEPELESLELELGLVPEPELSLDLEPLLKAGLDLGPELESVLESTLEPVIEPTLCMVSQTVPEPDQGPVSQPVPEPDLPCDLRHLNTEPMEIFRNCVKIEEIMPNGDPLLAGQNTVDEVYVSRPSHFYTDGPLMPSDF

Assays:
[1] = molecular target: T1, nuclear factor kappa B subunit 2 (NFKB2) (not stated (human cell lines HT29 and HEK-293T)) (UniProt Q00653); experiment: Re-ChIP; two rounds of ChIP at the -171 and -458 sites of the PD-L1 promoter in HEK-293T-vector and HEK-293T-NFKB2-OE (or STAT2) cells
T1 sequence: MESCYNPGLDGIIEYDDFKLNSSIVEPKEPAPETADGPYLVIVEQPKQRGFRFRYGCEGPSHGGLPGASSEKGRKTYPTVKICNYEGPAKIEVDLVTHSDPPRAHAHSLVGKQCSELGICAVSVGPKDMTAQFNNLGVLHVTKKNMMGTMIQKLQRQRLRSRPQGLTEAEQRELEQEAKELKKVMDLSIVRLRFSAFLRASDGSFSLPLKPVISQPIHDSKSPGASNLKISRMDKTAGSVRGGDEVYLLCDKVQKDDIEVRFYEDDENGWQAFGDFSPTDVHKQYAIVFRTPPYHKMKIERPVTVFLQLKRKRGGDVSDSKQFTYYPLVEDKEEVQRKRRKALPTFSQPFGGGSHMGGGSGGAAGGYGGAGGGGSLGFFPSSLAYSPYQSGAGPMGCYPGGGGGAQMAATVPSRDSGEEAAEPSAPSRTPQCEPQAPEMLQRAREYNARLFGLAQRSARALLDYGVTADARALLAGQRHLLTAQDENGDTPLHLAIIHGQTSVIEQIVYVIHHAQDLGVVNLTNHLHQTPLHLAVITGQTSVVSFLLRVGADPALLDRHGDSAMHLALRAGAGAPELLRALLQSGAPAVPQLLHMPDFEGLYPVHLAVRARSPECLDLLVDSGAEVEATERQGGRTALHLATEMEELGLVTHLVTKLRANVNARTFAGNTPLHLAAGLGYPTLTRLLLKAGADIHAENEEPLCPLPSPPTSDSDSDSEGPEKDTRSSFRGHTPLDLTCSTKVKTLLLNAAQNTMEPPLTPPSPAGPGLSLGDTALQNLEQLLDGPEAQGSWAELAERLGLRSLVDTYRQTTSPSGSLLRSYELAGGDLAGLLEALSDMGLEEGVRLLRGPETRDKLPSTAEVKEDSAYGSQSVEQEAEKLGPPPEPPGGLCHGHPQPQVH

[2] = molecular target: T1, nuclear factor kappa B subunit 2 (NFKB2) (not stated (human cell lines HT29 and HEK-293T)); experiment: co-IP; immunoprecipitation assay in HT29 and HEK-293T cells
[3] = molecular target: T1, nuclear factor kappa B subunit 2 (NFKB2) (not stated (human cell lines HT29 and HEK-293T)); experiment: co-IP; IP with deletion mapping: Flag-STAT2 deletions with NFKB2, and NFKB2 deletion constructs with STAT2, in HEK-293T cells
[4] = molecular target: T1, nuclear factor kappa B subunit 2 (NFKB2) (not stated (human cell lines HT29 and HEK-293T)); experiment: co-IP; IP in HEK-293T and MC38 cells overexpressing or knocked out for NFKB2; phosphorylated and total STAT2 compared

Substance: signal transducer and activator of transcription 2 (STAT2) (from UniProt P52630 1-851)
- binding [1]: binds
- binding [2]: binds

Substance: Flag-STAT2 full-length protein (from UniProt P52630 1-851)
- binding [3]: binds

Substance: phosphorylated form of STAT2 (from UniProt P52630 1-851)
- binding [4]: binds
